According to patent US8048925B2, “Bis(thio-hydrazide amide) salts for treatment of cancers” (Synta Pharmaceuticals Corp., priority 2004, dated 2011):
Some entries share one result that the patent states for a list of compounds.

Assay: Solubility in water, saturated suspension filtered and measured by HPLC
Assay type: physicochemical
Protocol: A compound was weighed and water was added to the compound such that the resulting concentration of the compound was about 100 mg/mL. The mixture was then shaken well and sonicated (about 5-10 min at about 50° C.). If the added amounts of the compound were totally solubilized, more amounts of the compound were added to the solution and the mixture was shaken well and sonicated until a suspension was achieved. The suspension was then filtered through a 0.2 μm filter. The filtered solution was diluted with DMSO. Then the mixture was analyzed by HPLC to determine the concentration of the compound.
The HPLC system consisted of the HP 1100 Model (Agilent, Wilmington, Del.) equipped with a model 1100 quaternary pump, a model 1100 autosampler, a model 1100 Diode-Array Detector for UV detection at 280 nm. HPLC analysis was performed using a gradient mobile phase consisting of acetonitrile-water containing 0.1% formic acid. Mobile phases were degassed and filtered through a solvent filtration apparatus and pumped at a constant rate of 1.0 mL/min. Separation was made on an XTerra MS C18 analytical column, 4.6 mm i.d.×150 mm, (Waters Corp., Milford, Mass., USA) fitted with a pre-column filter (XTerra MS C18, 3.9 mm×20 mm). The column was maintained at 40° C.

SMILES: CN(NC(=O)CC(=O)NN(C)C(=S)c1ccccc1)C(=S)c1ccccc1 [Compound 2, Dipotassium; 2-(N′-methyl-N′-thiobenzoyl-hydrazinocarbonyl)-1-(methyl-thiobenzoyl-hydrazono)-ethanolate]
- water solubility: greater than 1,000 mg/ml
